Results published in publication PMC5939225.
Results are given in words; binding and its absence hold for the method and conditions named. In cells and extracts the contact can be indirect. Binding can be weak; no strength is given.

Sequences of proteins named here, by UniProt entry; tags and fusion partners are left off. A change or cut given only in a name is not applied to a line headed by its entry.
UniProt P46414: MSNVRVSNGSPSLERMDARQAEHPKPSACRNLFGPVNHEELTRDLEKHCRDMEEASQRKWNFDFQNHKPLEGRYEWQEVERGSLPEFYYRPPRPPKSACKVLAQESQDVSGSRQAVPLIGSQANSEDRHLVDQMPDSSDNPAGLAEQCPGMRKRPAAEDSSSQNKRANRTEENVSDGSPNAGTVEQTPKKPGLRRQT
UniProt Q9QUI0: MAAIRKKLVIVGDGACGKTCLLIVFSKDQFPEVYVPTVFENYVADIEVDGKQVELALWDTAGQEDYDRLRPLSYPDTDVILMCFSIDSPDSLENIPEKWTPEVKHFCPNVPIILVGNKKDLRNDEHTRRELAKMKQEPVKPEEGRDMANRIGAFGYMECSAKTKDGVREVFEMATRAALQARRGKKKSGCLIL

Biological target: p27 (mouse (endogenous in primary hippocampal neurons)) (UniProt P46414)
Assay: co-IP; anti-p27 antibody cross-linked to Protein A/G agarose beads, incubated with extracts of primary hippocampal neurons at 4 °C overnight; blot with anti-RhoA; neurons WT or Cks1-/-, siCtrl or siCks1, with or without PiB or PINTIDE

binding: binds
Substance: RhoA (from UniProt Q9QUI0)
